Measurements reported in PubChem BioAssay AID1910 (Broad Institute, 2009).
About 950 (0.32%) of roughly 300,000 compounds were called active. This list was built around the results that the source calls inconclusive (neither active nor inactive); the mix of calls is not that of the screen.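 The calls were made as follows: active = mean activation of at least 10% of the iron chelator positive control signal, with at least half of replicates also reaching 10%; inconclusive = mean and replicate majority disagree about reaching 10%; inactive = mean and most replicates under 10%.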

Assay: HIF pathway transcriptional activators, primary screen, cell-based, U2OS HRE-luciferase, luminescence (AID 1910)
Details: U2OS HRE-luciferase reporter, active compounds read high, normalized: DMSO 0%, desferrioxamine 100%, concentration not given here

Structure (SMILES) | activation
CCN1CCN(c2ncnc3ccc(Br)cc23)CC1 | inconclusive: 5.92%
COc1cccc(-c2cc(C(F)(F)F)n3nc(C(=O)N4CCC5(CC4)OCCO5)cc3n2)c1 | inconclusive: 5.39%
O=C(CSC1c2ccccc2-c2ccccc21)N/N=C/c1ccccc1O | active: 9.94%
CCOC(=O)c1c(NS(=O)(=O)c2ccccc2)n(CCCOC)c2nc3ccccc3nc12 | active: 455%
CC(C)CC(NC(=O)C1CCCCC1)C(=O)N1CCC2(CC1)OCCO2 (configuration not stated) | inactive: -1.26%
Cc1ccc2nc(N3CCN(C)CC3)[nH]c2c1 | inconclusive: 6.79%
Cc1ccc(N=C(/N=C(\N)N[N+](=O)[O-])Nc2ccc(C)cc2)cc1 | inactive: 0.187%
CCN(CC)CCCN=C(C)c1c(O)n(C2CCCCC2)c(=O)[nH]c1=O | inactive: -0.361%
CC/C(=N\N1CCCCCC1)c1c(O)n(-c2ccc(C)cc2)c(=O)[nH]c1=O | active: 12.4%
N#CC(C#N)=NNc1ccc(-n2ccc(C(F)(F)F)n2)cc1 | inactive: 2.33%
Cc1ccc(C)c(OCC(=O)N2CCN(Cc3ccc4c(c3)OCO4)CC2)c1 | inconclusive: 5.45%
COc1ccc(-n2c(O)c(C(C)=NCC3CCCO3)c(=O)[nH]c2=O)cc1 (configuration not stated) | inactive: 0.186%
